Article PMC6561742
These are yes or no findings as the source states them, for the method shown. Binding seen in cells or lysates may run through a third protein. Some entries that bind do so weakly or less than the wild type.

Protein sequences, listed by entry. Tags and fused reporters are not part of them.
UniProt P28574: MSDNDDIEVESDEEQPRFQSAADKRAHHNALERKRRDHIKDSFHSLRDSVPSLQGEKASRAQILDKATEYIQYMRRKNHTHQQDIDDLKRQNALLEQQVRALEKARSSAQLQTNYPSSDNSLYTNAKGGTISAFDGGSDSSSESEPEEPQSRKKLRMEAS
UniProt P59178: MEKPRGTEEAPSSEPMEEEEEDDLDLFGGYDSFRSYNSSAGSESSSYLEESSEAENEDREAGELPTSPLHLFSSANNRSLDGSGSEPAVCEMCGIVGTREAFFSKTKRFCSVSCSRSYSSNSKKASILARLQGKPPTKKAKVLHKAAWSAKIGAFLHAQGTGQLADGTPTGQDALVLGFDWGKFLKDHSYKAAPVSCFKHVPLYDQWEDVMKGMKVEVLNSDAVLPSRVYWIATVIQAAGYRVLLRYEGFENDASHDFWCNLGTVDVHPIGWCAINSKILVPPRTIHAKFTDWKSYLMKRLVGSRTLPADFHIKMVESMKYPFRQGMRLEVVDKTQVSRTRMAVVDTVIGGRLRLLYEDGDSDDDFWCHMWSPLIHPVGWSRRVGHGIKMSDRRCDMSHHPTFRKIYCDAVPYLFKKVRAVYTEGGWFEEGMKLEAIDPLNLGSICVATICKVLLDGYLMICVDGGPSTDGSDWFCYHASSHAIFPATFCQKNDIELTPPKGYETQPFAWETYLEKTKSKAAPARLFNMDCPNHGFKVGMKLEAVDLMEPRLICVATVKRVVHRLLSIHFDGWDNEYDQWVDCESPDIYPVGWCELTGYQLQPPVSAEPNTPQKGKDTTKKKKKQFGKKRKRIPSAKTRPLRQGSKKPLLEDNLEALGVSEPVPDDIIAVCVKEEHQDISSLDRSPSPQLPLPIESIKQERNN
UniProt Q61069: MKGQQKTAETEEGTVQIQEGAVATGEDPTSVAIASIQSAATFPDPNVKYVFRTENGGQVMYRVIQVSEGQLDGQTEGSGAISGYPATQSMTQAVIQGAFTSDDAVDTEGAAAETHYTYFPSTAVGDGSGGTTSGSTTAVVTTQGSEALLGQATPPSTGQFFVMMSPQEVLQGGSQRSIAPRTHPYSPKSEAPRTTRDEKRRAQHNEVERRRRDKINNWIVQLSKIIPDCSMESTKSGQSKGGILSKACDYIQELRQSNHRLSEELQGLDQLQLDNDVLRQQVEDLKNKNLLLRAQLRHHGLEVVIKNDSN

Key:
[1] = target: T1, PCGF6 (mouse (endogenous in mESCs)) (UniProt Q99NA9); test: co-IP; PCGF6 antibody immunoprecipitation from nuclear extracts of mESC lines (R1A KO-R1B FL treated or not with OHT, Pcgf6 KO, WT, MgaΔHLH); high-salt lysis buffer (300 mM NaCl), benzonase, protein A magnetic beads; western blot
T1 sequence: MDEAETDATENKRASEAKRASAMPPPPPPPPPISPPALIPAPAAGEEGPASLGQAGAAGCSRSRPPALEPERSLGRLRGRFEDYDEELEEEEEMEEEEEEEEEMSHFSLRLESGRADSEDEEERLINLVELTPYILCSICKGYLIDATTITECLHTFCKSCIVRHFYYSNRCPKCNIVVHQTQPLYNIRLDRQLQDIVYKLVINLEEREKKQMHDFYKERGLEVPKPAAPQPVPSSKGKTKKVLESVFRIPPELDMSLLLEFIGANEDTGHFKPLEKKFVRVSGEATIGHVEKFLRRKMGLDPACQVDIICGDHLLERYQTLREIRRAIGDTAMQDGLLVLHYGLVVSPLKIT

[2] = target: T2, PCGF3 (mouse (endogenous in mESCs)) (UniProt Q8BTQ0); test: co-IP; PCGF3 antibody immunoprecipitation from nuclear extracts of WT mESCs; milder coIP conditions after digesting DNA with benzonase; rabbit IgG as unrelated control; western blot
T2 sequence: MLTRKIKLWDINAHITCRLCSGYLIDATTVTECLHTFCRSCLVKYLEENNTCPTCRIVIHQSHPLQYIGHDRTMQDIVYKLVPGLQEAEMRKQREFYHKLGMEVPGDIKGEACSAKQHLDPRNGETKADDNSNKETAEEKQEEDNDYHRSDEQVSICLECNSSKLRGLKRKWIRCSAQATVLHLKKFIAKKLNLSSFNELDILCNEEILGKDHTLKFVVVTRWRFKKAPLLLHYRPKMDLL

binding [1] | binding [2] | Substance
binds | – | MAX (from UniProt P28574 1-160)
binds | – | L3MBTL2 (from UniProt P59178 1-703)
– | binds | USF1 (from UniProt Q61069 1-310)
